# Library screen at single concentrations

The values are deposited in ChEMBL (CHEMBL3988442, “University of Dundee, Small-Polar-MMV Screening Library” (2021)).

Results are given as percent effect. The controls that fix the scale are not given in the record; negative values are as filed. The compounds are a random part of those screened. Two or more numbers in one place are separate tests of the same structure; such repeats can differ widely. A dash means the value is not listed here; it may have been measured.

T. brucei: 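Whole-parasite assay of Trypanosoma brucei over 72 hours; the read-out is not stated. Tested at 30 µM. Higher reads as stronger inhibition (inferred: compounds with an IC50 in retests scored well above the rest). Values scatter widely below zero; nearly all retest evidence comes from the higher of the two concentrations used. About 64,000 compounds were tested under these conditions; 1.5% (about 940) showed 50% or more at least once.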
Leishmania in macrophages: 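Cell assay of Leishmania donovani living inside macrophages; the read-out is not stated. Concentration: 30 µM. Higher reads as stronger inhibition (inferred: compounds with an IC50 in retests scored well above the rest). Size under these conditions: about 69,000 compounds, about 1,000 of them at 50% or above in at least one test.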
Toxoplasma: 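Assay of Toxoplasma gondii numbers, read through their beta-galactosidase reporter with a colour substrate. Concentration: 10 µM. The record gives no direction; the compounds picked for IC50 retests had high values, so higher reads as fewer parasites. Of about 67,000 compounds tested this way, about 260 (0.38%) reached 50% or more in at least one test.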

| compound | T. brucei | Leishmania in macrophages | Toxoplasma |
|---|---|---|---|
| `O=C(O)CC(O)(CC(=O)O)C(=O)O.[H][C@@]12CC[C@@](O)(c3ncccc3C)[C@]1([H])CN(Cc1cccc(Cl)c1Cl)C2` | -4.562% | 1.951% & -3.021% | 10.13% |
| `NC(=O)N1CCC(NCc2cc(C(F)(F)F)ccc2Cl)CC1` | -6.04% | -1.305% | -8.038% |
| `O=C(O)c1cc(-c2cncnc2)cc(S(=O)(=O)N2CCCCCC2)c1` | -4.082% | 11.04% | -1.404% |
| `CCOCC(O)CNc1cncc(Br)c1` (centres unmarked) | -84.84% | -11.65% | -2.504% |
| `COc1ccc(N2CCN(C(=O)CCCc3cn[nH]c3)CC2=O)cc1` | -19.94% | -10.91% | -5.398% |
| `Cc1nnc2n1CCN(C(=O)CN(C)Cc1ccccc1)C2` | -14.91% | 4.737% | -42.03% |
| `CCC[C@H]1CN(Cc2ccc(N(C)C)nc2)C[C@@H]1NC(=O)CCOC` | -16.32% | -10.22% | -1.034% |
| `CCOC1CCCN(C(=O)c2ccccc2NCc2cccnc2)C1` (centres unmarked) | -15.73% | -12.63% | 2.249% |
| `COc1ccc(CN2CCOC3(CCCN(c4nnc(C)o4)C3)C2)cc1.O=C(O)C(F)(F)F` (centres unmarked) | -3.067% | 11.12% | 14.56% |
| `CC(=O)N1CCC2(CC1)c1ncc(-c3ccccc3)n1CCN2C` | -53.55% | 43.35% | -31.55% |
| `O=C(N[C@@H]1CC[C@@H](N2CCCC2)[C@@H]1O)c1cc2ccccc2[nH]1` | - | 31.86% | - |
| `C[C@@H](NC(=O)c1cccn1C)c1c(-c2ccc(Cl)cc2)noc1C(=O)O` | -23.36% | 22.71% | 17.94% |
| `CCCc1c(C(=O)N2CCN(c3nccc(OC)n3)CC2)cnn1C` | -40.71% | -160.4% | -2.304% |
| `Cc1nc2c(c(NCc3cc4ccccc4s3)n1)CCNCC2` | 99.88% | 99.76% | 2.238% |
| `CN1CCC(N(C)C(=O)c2cnn(-c3cc(F)ccc3F)c2N)CC1` | 3.863% | 31.54% | 2.124% |
| `COc1cccc(OC)c1OCCn1c(C)c(C)oc1=O` | -12.37% | 18.44% | -4.198% |
| `Cn1ccnc1SCCNc1cc(N2CCOCC2)ncn1` | 13.99% | 18.64% | -1.408% |
| `Cn1c(Cn2ccnc2)nnc1C1CCCN(c2ncccn2)C1` (centres unmarked) | 7.894% | 9.152% | -3.768% |
| `NC(=O)C1CCN(C(=O)c2cc(S(=O)(=O)N3CCCCC3)cs2)CC1` | -19.74% | -13.76% | -3.19% |
| `CC(C)n1cnc2c1C(C(=O)N1CCOCC1)N(CC1CC1)CC2.O=C(O)C(F)(F)F` (centres unmarked) | -33.41% | 17.66% | -0.7173% |
| `CNC(=O)Cc1coc(-c2ccc(F)cc2)n1` | 8.675% | 20.17% | -1.877% |
| `COc1ccc(C2CCCN2C(=O)NCCn2ccnc2)cc1OC` (centres unmarked) | -2.513% | -24.39% | 8.451% |
| `CC(C(=O)Nc1ccnn1C(C)C)N1CCN(Cc2ccccc2)CC1` (centres unmarked) | 4.469% | 17.93% | 1.905% |
| `Cc1cc(S(=O)(=O)N2CCCc3cc(F)c(F)cc32)sc1C(=O)O` | -46.1% | -4.908% | 8.372% |
| `[H][C@@]12CCN(Cc3ccc4c(c3)OCO4)C[C@]1([H])O[C@@H](C(=O)NC)C2` | 35.8% | 1.278% | 2.675% |
| `Cn1nc(CN2CCCCC(N)C2)c2c(Cl)cccc21` (centres unmarked) | 88.2% | 74.89% | 1.946% |
| `CC(C)c1nnc(CCC(=O)N2CCCC(c3cnccn3)C2)o1` (centres unmarked) | 8.768% | -2.833% | -13.73% |
| `CC(C)C(C)N(C)Cc1nnc(-c2ccco2)o1` (centres unmarked) | -56.56% | -22.76% | -3.495% |
| `COc1ccc(CN(C)[C@@H]2CN(C(=O)c3ccnn3C)C[C@H]2O)cc1` | -2.705% | -26.6% | -8.318% |
| `[H][C@@]12CCN(C(C)=O)C[C@]1([H])[C@H](C(=O)NCc1ccco1)CCO2` | -6.194% | 30.34% | -10.06% |
| `CCCN(CCO)C(=O)c1cc(COc2ccc3c(c2)CCCC3)on1` | -16.02% | -4.123% | -13.3% |
| `O=C(CCn1cc(Cl)cn1)Nc1nncs1` | -13.17% | 4.876% | 1.234% |
| `CC(=O)N1CCN([C@@H]2CC[C@@H](N(C)C(=O)C3CCCCC3)[C@H]2O)CC1` | -19.3% | 12.88% & -6.978% | 6.866% |
| `[H][C@]12CCC[C@@]1(COCC)CN(C(=O)c1ccc(OC)cc1)C2` | -41.77% | -1.007% | -6.608% |
| `CC(C)[C@@H]1CN(C(=O)CCn2ccccc2=O)C[C@H]1NS(C)(=O)=O` | 4.047% | 9.257% | -1.04% |
| `COc1ccccc1C(O)CNC(=O)NCc1cc[nH]n1` (centres unmarked) | -11.42% | -41.36% | -12.88% |
| `CC(C)c1ccc(C(O)CN2CCN(Cc3nccn3C)CC2)cc1` (centres unmarked) | - | 49.03% | 13.58% |
| `Cc1cc2n(n1)CC(CNCc1cnn(C)c1)CN2` (centres unmarked) | -19.35% | -6.993% | -1.2% |
| `Cc1cc(C)n(CC(C)NCCN2CCc3ccccc32)n1` (centres unmarked) | -11.86% | 10.75% | -38.41% |

Some entries from above, unchanged:

| compound | T. brucei | Leishmania in macrophages | Toxoplasma |
|---|---|---|---|
| `[H][C@@]12CCN(C(C)=O)C[C@]1([H])[C@H](C(=O)NCc1ccco1)CCO2` | -6.194% | 30.34% | -10.06% |
| `NC(=O)C1CCN(C(=O)c2cc(S(=O)(=O)N3CCCCC3)cs2)CC1` | -19.74% | -13.76% | -3.19% |
| `CN1CCC(N(C)C(=O)c2cnn(-c3cc(F)ccc3F)c2N)CC1` | 3.863% | 31.54% | 2.124% |